From PMC3493543
These are yes or no findings as the source states them, for the method shown. Some binding calls cover weakened binding; strength is not graded here. Where a sequence is shown, tags or fusion partners need not be part of it.

Experiments:
Test in all cases: two-hybrid; Matchmaker system; co-transformation of pGBKT7 bait and pGADT7 prey into S. cerevisiae AH109; double transformants from DDO plates re-spotted on QDO plates with x-α-galactosidase (HIS3, ADE2, MEL1 markers)
[1] = molecular target: T1, GTF2IRD1 C-terminal truncation TR2 (aa 1-909) fused to the GAL4 DNA-binding domain (human) (UniProt Q9UHL9)
T1 sequence: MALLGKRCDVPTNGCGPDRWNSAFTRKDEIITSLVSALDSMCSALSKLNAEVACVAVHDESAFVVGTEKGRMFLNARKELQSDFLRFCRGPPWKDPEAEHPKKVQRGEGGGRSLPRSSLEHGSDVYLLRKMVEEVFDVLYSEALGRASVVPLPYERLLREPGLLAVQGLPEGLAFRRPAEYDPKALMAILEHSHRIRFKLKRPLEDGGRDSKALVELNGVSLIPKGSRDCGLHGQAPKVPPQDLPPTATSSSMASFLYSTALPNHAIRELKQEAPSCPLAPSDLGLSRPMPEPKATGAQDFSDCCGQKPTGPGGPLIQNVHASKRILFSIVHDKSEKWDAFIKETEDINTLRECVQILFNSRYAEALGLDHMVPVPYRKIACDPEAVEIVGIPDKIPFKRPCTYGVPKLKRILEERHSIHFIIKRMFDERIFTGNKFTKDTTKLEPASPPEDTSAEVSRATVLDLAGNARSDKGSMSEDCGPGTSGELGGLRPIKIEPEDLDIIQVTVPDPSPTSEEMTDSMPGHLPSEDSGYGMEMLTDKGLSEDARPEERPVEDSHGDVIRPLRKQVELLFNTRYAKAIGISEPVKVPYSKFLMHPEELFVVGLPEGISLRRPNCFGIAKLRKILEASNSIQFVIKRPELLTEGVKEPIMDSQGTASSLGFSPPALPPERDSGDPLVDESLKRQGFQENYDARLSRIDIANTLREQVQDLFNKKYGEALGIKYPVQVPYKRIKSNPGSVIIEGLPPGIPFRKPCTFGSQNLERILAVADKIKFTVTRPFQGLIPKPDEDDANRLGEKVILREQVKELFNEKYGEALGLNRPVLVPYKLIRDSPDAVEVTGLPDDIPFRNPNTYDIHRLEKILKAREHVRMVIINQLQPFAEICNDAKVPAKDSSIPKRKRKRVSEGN

[2] = molecular target: T2, GTF2IRD1 C-terminal truncation TR3 (aa 1-787) fused to the GAL4 DNA-binding domain (human) (UniProt Q9UHL9)
T2 sequence: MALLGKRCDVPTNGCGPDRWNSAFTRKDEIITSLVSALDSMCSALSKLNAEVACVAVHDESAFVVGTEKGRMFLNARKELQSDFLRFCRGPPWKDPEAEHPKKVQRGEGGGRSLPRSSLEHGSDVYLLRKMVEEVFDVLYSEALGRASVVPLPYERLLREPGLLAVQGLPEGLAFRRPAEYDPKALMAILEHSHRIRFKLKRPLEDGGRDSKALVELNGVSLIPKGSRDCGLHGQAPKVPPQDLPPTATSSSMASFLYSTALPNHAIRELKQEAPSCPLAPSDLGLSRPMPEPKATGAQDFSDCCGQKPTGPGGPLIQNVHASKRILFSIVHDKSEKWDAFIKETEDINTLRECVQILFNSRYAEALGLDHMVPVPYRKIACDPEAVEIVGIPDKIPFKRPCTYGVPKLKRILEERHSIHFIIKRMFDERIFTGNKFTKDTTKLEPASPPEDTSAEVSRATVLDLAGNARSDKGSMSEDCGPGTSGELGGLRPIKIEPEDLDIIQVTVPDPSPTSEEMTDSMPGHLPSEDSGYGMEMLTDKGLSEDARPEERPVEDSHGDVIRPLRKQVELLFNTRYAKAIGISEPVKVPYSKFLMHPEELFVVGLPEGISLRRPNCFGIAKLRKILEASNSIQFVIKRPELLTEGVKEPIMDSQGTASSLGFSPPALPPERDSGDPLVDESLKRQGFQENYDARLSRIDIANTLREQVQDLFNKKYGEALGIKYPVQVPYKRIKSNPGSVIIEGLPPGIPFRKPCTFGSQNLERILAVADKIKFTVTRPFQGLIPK

[3] = molecular target: T3, full-length human GTF2IRD1 1α1 isoform fused to the GAL4 DNA-binding domain (pGBKT7-GTF2IRD1) (human) (UniProt Q9UHL9)
T3 sequence: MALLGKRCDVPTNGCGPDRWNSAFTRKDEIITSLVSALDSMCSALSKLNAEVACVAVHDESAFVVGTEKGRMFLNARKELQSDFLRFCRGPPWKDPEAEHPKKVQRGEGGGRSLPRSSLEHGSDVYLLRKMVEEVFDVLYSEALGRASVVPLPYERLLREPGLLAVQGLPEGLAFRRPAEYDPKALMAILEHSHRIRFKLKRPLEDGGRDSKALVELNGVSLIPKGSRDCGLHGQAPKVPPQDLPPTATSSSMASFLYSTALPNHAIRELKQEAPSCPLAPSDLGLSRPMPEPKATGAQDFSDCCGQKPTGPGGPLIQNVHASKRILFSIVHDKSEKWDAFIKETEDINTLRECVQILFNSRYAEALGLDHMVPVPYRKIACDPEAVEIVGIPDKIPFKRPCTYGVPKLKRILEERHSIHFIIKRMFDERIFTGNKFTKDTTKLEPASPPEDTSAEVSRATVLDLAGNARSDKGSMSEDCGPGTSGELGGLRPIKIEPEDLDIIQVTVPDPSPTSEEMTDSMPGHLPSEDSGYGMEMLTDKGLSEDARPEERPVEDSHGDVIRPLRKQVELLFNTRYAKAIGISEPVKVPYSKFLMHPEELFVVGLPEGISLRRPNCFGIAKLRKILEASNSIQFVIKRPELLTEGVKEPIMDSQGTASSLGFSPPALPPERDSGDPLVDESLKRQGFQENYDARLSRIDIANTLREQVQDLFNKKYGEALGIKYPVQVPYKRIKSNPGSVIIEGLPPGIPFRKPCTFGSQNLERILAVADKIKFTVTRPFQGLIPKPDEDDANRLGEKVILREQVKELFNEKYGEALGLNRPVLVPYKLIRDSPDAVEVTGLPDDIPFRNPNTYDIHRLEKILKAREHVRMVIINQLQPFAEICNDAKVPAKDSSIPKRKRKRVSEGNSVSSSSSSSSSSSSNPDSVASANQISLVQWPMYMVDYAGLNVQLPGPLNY

binding [1]: no binding
binding [2]: no binding
binding [3]: binds
Substance: PIASxβ fused to the GAL4 activation domain (pGADT7-PIASxβ) (from UniProt Q8C5D8-1 1-621) (enzyme)
